According to patent US10390536B2, “Methods, compounds and compositions for repelling insects and/or arachnids” (National Center for Scientific Research “Demokritos”, priority 2013, dated 2019):

Test system: sand fly Lutzomyia longipalpis
Assay: warm body repellence assay with sand flies
Type: in vivo
Procedure: To test the effects of repellent compounds or compositions disclosed herein on other blood-feeding arthropods, a warm body repellence assay (Krober et. al. (2010). An In Vitro Assay for Testing Mosquito Repellents Employing a Warm Body and Carbon Dioxide as a Behavioral Activator. Journal of the American Mosquito Control Association 26(4): 381-386] was conducted using the sand fly Lutzomyia longipalpis (Diptera: Psychodidae), the principal vector of Leishmania (or leismaniasis) in the Americas.
[…] Fifty L. longipalpis sandflies (male:female ratio 1:1) of 3-7 days old were tested during the scotophase under conditions described for A. gambiae in Example 6. The test cages were lined with filter paper. Reduction in the number of landings by L. longipalpis sand fly females on a warm body treated with different test products compared to the control with solvent (ethanol p.a.) alone was used to evaluate repellence. Tests were conducted in complete darkness using IR LEDs to illuminate the warm body. Landings counted during 2 minutes were normalized by experimental day, cage, and number of females by a mixed linear model before testing for differences.

CCCCOC(=O)C=Cc1ccccc1 [butyl-cinnamate, butyl 3-phenylprop-2-enoate]
Difference to DEET at 20 nmol/cm^2 (test product at 20 nmol/cm^2): *** (P ≤ 0.001) | Difference to DEET at 20 nmol/cm^2 (test product at 200 nmol/cm^2): * (P ≤ 0.1)
